{
  "source": "paper PMC7819943",
  "about": "“Rice protein-binding microarrays: a tool to detect cis-acting elements near promoter regions in rice”",
  "note": "This is one part of the list.",
  "data": [
    {"target": "T1, OsSMF1 (Oryza sativa, UniProt Q6ZLB0 1-436)", "T1 sequence": "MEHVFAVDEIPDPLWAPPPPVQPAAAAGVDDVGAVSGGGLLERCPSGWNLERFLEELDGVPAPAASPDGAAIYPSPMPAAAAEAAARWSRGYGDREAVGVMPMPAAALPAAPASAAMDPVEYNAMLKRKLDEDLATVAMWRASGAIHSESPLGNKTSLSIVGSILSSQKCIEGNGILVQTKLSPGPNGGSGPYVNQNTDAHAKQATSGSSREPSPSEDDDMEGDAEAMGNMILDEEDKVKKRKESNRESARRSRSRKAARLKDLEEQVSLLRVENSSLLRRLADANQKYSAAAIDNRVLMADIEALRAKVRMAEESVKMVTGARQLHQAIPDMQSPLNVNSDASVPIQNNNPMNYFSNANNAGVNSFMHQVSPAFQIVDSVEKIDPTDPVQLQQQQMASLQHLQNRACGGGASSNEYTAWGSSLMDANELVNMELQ", "test": "protein-binding microarray (RPBM); PBS, 2% BSA, 51.3 ng/ul salmon testes DNA, 50 uM zinc acetate, 200 nM TF, 25 C, 1 h; high values mean tight binding", "details": "protein: recombinant; tags: N-terminal polyhistidine and DsRed monomer fusion (pET32a); chain copies: 2; label: CyDye5-dUTP incorporated in the synthesized complementary strand; 3' TTTTT single-stranded linker to array surface; dsDNA, one strand shown", "how_it_was_run": "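Binding signal is defined as the fluorescence intensity of each feature in arbitrary units, read on an Axon 4000B scanner. Transcription factors with N-terminal polyhistidine and DsRed fusions came from E. coli BL21-CodonPlus and were purified on Ni–NTA. They were incubated at 200 nM for 1 h at 25 °C on a custom Agilent array that had been made double-stranded with Cy5-dUTP, with 50 µM zinc acetate present, and the array was washed.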", "values": [
      {"sequence": "ATTTGTGTACGGCACCGCCCCACCCGCCACGCCTCCGCCTCGGAGTCACCTAGTGCAG", "binding signal": "3290 fluorescence intensity (a.u.)"},
      {"sequence": "TACTCGATTTGGTTCTTGGTTGTGACGAGTGTTCCGGGTGCGGAGTCACCTAGTGCAG", "binding signal": "3140 fluorescence intensity (a.u.)"},
      {"sequence": "TAAAATTTTGGCTGATAAGTACTTCCTCCGTTTCACGATGCGGAGTCACCTAGTGCAG", "binding signal": "3250 fluorescence intensity (a.u.)"},
      {"sequence": "TTGTATCATTACCTAATTAGAGCTAGCTCTGCCACCACTGCGGAGTCACCTAGTGCAG", "binding signal": "3370 fluorescence intensity (a.u.)"},
      {"sequence": "GCCGCCGCTGGCGGGTGGGGATCGGTGGGGCAGTTCGGGCCGGAGTCACCTAGTGCAG", "binding signal": "3640 fluorescence intensity (a.u.)"},
      {"sequence": "GAAACTTGTAGAAGCGAAAAGAGCGATGGGTGTCAGTTTGCGGAGTCACCTAGTGCAG", "binding signal": "3200 fluorescence intensity (a.u.)"},
      {"sequence": "CCTGAAGCTCTTCGCACGAATGTCGATACATTCCCAAGCGCGGAGTCACCTAGTGCAG", "binding signal": "3480 fluorescence intensity (a.u.)"},
      {"sequence": "ACGATTCACAACCCACGAGTGATGATTCAGAAGTGAAAACCGGAGTCACCTAGTGCAG", "binding signal": "3260 fluorescence intensity (a.u.)"},
      {"sequence": "AACGGCAGTACGGTATAGGAAAGGGAATAATAATAACAATCGGAGTCACCTAGTGCAG", "binding signal": "20400 fluorescence intensity (a.u.)"},
      {"sequence": "AAGCGGGGATTTTATGTGGGCAGTGGGTTTTCTTCTTAAACGGAGTCACCTAGTGCAG", "binding signal": "3810 fluorescence intensity (a.u.)"},
      {"sequence": "CCGATTTTCATGACGAAACTCTACTTTTGCAAAATGCTTCCGGAGTCACCTAGTGCAG", "binding signal": "3140 fluorescence intensity (a.u.)"},
      {"sequence": "ACATAACGATATGTCGTGGCCCCATCATCACATTCACAGACGGAGTCACCTAGTGCAG", "binding signal": "3800 fluorescence intensity (a.u.)"},
      {"sequence": "ACCGGCCAGGCAAACCCAGTCAGCCAAACCCTCACCCGTACGGAGTCACCTAGTGCAG", "binding signal": "3420 fluorescence intensity (a.u.)"},
      {"sequence": "GTTTTCCTTGCTGACCTCGATTCGGAATATGGATCCGTGTCGGAGTCACCTAGTGCAG", "binding signal": "3350 fluorescence intensity (a.u.)"},
      {"sequence": "GGTTGTTCGCTGATGTGTAGCTTTCAGAGCGATTAGGCTTCGGAGTCACCTAGTGCAG", "binding signal": "5900 fluorescence intensity (a.u.)"},
      {"sequence": "GCGGCGGCGCGAGCAAGTGACGCGGCGGCGCGATAAGGGCCGGAGTCACCTAGTGCAG", "binding signal": "4650 fluorescence intensity (a.u.)"},
      {"sequence": "GGTGAATGGCGGTGGTTTCGGCTTGCACGGTGGGAATGGTCGGAGTCACCTAGTGCAG", "binding signal": "3490 fluorescence intensity (a.u.)"},
      {"sequence": "CTACTCTTATCCAAGGCAGACGGGCACGTGTAACTGCCATCGGAGTCACCTAGTGCAG", "binding signal": "4590 fluorescence intensity (a.u.)"},
      {"sequence": "GTATAAGAGAAGCCGGATAATTCACTGATACTCCAATGGACGGAGTCACCTAGTGCAG", "binding signal": "15500 fluorescence intensity (a.u.)"},
      {"sequence": "CCTCTTCCTCTGCTTCGTCTTCTTCCTCTCGCTGCTGCTTCGGAGTCACCTAGTGCAG", "binding signal": "30500 fluorescence intensity (a.u.)"},
      {"sequence": "GACTGCGGCCACAGATGATCCTGATGTGTAAACTCATGCTCGGAGTCACCTAGTGCAG", "binding signal": "3140 fluorescence intensity (a.u.)"},
      {"sequence": "ACTTGAAATATTGGCTATTATTATTGAACCTAGGAACAAGCGGAGTCACCTAGTGCAG", "binding signal": "18400 fluorescence intensity (a.u.)"},
      {"sequence": "GAGATTCGCCACCCGCCGGAGAAATGCCGCCACGGAGGCGCGGAGTCACCTAGTGCAG", "binding signal": "4170 fluorescence intensity (a.u.)"},
      {"sequence": "GCGCCGCCAGCCGCTACAGGTCAGCGGCAACAGCAGGTTCCGGAGTCACCTAGTGCAG", "binding signal": "29200 fluorescence intensity (a.u.)"},
      {"sequence": "TGTATGTAATATTAACATGGAGATAAGATCCAAGATGCGACGGAGTCACCTAGTGCAG", "binding signal": "3570 fluorescence intensity (a.u.)"},
      {"sequence": "TGCCATCCAATTCGTGCTACTTTCAGAATACACCATCGAACGGAGTCACCTAGTGCAG", "binding signal": "3320 fluorescence intensity (a.u.)"},
      {"sequence": "AGTTCTCATCTCCAATTTTCTCGGTACGTGTATTTGAGGGCGGAGTCACCTAGTGCAG", "binding signal": "3220 fluorescence intensity (a.u.)"},
      {"sequence": "CACGGCATCGGCATCGGCAGCCACGCCTCGCGTGGCACGGCGGAGTCACCTAGTGCAG", "binding signal": "4720 fluorescence intensity (a.u.)"},
      {"sequence": "TATTCCCAACGTCATGACAGGGACACGTCATAACAAATTCCGGAGTCACCTAGTGCAG", "binding signal": "16000 fluorescence intensity (a.u.)"},
      {"sequence": "CAAATTATTTTGGTTGCATTGTTTATTCTAAAGAGCTGATCGGAGTCACCTAGTGCAG", "binding signal": "14900 fluorescence intensity (a.u.)"},
      {"sequence": "GACAATGATGTCACGGGCGGACGCGGCTGTGACGCACGCACGGAGTCACCTAGTGCAG", "binding signal": "7830 fluorescence intensity (a.u.)"},
      {"sequence": "GCTCTATGATTTGACAATGTAGTGCTACAGTAAACATTTGCGGAGTCACCTAGTGCAG", "binding signal": "3820 fluorescence intensity (a.u.)"},
      {"sequence": "AGCCCACGTCCAGCTCACACACGCACCCACAACCGACCCACGGAGTCACCTAGTGCAG", "binding signal": "6070 fluorescence intensity (a.u.)"},
      {"sequence": "TCGACCAATCCTATAAAGCGACACATCACCGGATAACCACCGGAGTCACCTAGTGCAG", "binding signal": "7880 fluorescence intensity (a.u.)"},
      {"sequence": "TGGCCGTGCCGTTATAGTTACGACGGCAGACGTGCCGTTACGGAGTCACCTAGTGCAG", "binding signal": "35600 fluorescence intensity (a.u.)"},
      {"sequence": "GCCGCTTCGATGCTGGCGGCAGGGTGGGGCGGGGATGCCTCGGAGTCACCTAGTGCAG", "binding signal": "6170 fluorescence intensity (a.u.)"},
      {"sequence": "ATTTCAGCGAAAGCTACGTCACGTAGGCACCACGACAGTTCGGAGTCACCTAGTGCAG", "binding signal": "6470 fluorescence intensity (a.u.)"},
      {"sequence": "TACTTGTCAAATATTTGGTGGAAATGGTAGGTGTAATGTACGGAGTCACCTAGTGCAG", "binding signal": "3460 fluorescence intensity (a.u.)"},
      {"sequence": "TCATACTGCCATCATACCATCCTACAATAGACAAATTTAACGGAGTCACCTAGTGCAG", "binding signal": "54300 fluorescence intensity (a.u.)"},
      {"sequence": "CTACTTTCATGCAGGTGTAAAATTCGTGTGACAACTTTGTCGGAGTCACCTAGTGCAG", "binding signal": "5380 fluorescence intensity (a.u.)"},
      {"sequence": "AATCGAGAAGTCAAAAGTGACGTAGAGTCCTACTGTATCCCGGAGTCACCTAGTGCAG", "binding signal": "3940 fluorescence intensity (a.u.)"},
      {"sequence": "AATTGCTGACAGTACATTAGTGTACTCCATAGGTTCATCTCGGAGTCACCTAGTGCAG", "binding signal": "4440 fluorescence intensity (a.u.)"}
    ]}
  ]
}
